These results are taken from article PMC8458969.

No constants are given. Whether binding was seen depends on the method and setting. A result given as binding can be weak or reduced; the word gives no strength.

The assay deals with GmPGL2 (Glycine max pale green leaf 2), Gal4 DNA-binding domain fusion (soybean (Glycine max)) (UniProt K7KQ04). Description: two-hybrid; Gal4-based, Matchmaker Gold system; GmPGL2 or GmPGL2m in pGBKT7-BD, MORF/ORRM in pGADT7-AD; strain Y2H Gold; growth on SD/-Ade/-His/-Leu/-Trp (QDO), 48 h at 28°C.
On to “GmMORF8, Gal4 activation domain fusion (from UniProt I1M324)”, for which the binding result is listed as “binds”.
Take “GmMORF9, Gal4 activation domain fusion (from UniProt I1ME71)”: the binding entry is reported as “binds”.
The result for “GmORRM6, Gal4 activation domain fusion (from UniProt C6SVN2)” reads “binds”.
